Data published in publication PMC10941655.
These are yes or no findings as the source states them, for the method shown. Binding seen in cells or lysates may run through a third protein. Some results given as binding are weak or reduced against the parent protein; the word gives no strength. For part of these data: Where a sequence is shown, tags or fusion partners need not be part of it.

The chains behind the UniProt entries cited, without tags or fusion partners.
UniProt P38873: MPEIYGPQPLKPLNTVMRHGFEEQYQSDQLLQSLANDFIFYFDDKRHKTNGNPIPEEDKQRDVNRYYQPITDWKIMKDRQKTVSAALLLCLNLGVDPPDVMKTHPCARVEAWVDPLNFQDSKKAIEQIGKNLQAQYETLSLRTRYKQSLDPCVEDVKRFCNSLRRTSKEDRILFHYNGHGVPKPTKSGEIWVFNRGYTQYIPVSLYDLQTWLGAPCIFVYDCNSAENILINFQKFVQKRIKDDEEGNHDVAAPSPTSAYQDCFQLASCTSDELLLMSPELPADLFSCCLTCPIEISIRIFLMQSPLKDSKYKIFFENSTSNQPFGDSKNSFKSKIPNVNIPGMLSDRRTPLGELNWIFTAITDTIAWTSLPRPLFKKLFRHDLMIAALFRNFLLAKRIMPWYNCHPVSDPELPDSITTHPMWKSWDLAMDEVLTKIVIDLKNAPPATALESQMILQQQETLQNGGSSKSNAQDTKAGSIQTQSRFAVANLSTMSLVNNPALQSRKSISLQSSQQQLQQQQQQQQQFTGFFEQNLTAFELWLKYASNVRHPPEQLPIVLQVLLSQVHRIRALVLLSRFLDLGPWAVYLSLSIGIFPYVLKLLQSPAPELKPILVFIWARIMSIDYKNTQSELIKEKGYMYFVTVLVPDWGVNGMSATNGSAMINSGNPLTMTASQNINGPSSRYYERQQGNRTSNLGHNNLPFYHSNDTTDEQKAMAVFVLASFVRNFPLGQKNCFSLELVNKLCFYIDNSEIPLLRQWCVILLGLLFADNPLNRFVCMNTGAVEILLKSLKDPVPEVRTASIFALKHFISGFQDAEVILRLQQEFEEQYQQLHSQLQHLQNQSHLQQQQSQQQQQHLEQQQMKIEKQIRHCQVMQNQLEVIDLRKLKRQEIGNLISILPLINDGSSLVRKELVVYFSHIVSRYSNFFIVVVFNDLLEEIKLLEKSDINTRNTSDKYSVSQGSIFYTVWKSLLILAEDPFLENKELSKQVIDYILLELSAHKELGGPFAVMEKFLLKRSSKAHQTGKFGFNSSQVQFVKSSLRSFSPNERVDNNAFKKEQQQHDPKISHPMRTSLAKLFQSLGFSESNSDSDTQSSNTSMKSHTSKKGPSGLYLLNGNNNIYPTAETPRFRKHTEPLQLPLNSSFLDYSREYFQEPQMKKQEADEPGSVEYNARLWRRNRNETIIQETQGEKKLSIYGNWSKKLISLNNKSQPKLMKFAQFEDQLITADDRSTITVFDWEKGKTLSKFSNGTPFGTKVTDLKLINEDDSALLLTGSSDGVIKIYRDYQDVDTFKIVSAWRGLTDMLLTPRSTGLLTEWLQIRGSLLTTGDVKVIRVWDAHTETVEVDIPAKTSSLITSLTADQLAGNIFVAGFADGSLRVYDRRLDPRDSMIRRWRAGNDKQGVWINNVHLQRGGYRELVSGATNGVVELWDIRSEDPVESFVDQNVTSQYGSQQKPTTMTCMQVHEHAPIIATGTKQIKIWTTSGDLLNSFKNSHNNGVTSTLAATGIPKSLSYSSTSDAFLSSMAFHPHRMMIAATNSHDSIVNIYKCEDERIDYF
UniProt P32600: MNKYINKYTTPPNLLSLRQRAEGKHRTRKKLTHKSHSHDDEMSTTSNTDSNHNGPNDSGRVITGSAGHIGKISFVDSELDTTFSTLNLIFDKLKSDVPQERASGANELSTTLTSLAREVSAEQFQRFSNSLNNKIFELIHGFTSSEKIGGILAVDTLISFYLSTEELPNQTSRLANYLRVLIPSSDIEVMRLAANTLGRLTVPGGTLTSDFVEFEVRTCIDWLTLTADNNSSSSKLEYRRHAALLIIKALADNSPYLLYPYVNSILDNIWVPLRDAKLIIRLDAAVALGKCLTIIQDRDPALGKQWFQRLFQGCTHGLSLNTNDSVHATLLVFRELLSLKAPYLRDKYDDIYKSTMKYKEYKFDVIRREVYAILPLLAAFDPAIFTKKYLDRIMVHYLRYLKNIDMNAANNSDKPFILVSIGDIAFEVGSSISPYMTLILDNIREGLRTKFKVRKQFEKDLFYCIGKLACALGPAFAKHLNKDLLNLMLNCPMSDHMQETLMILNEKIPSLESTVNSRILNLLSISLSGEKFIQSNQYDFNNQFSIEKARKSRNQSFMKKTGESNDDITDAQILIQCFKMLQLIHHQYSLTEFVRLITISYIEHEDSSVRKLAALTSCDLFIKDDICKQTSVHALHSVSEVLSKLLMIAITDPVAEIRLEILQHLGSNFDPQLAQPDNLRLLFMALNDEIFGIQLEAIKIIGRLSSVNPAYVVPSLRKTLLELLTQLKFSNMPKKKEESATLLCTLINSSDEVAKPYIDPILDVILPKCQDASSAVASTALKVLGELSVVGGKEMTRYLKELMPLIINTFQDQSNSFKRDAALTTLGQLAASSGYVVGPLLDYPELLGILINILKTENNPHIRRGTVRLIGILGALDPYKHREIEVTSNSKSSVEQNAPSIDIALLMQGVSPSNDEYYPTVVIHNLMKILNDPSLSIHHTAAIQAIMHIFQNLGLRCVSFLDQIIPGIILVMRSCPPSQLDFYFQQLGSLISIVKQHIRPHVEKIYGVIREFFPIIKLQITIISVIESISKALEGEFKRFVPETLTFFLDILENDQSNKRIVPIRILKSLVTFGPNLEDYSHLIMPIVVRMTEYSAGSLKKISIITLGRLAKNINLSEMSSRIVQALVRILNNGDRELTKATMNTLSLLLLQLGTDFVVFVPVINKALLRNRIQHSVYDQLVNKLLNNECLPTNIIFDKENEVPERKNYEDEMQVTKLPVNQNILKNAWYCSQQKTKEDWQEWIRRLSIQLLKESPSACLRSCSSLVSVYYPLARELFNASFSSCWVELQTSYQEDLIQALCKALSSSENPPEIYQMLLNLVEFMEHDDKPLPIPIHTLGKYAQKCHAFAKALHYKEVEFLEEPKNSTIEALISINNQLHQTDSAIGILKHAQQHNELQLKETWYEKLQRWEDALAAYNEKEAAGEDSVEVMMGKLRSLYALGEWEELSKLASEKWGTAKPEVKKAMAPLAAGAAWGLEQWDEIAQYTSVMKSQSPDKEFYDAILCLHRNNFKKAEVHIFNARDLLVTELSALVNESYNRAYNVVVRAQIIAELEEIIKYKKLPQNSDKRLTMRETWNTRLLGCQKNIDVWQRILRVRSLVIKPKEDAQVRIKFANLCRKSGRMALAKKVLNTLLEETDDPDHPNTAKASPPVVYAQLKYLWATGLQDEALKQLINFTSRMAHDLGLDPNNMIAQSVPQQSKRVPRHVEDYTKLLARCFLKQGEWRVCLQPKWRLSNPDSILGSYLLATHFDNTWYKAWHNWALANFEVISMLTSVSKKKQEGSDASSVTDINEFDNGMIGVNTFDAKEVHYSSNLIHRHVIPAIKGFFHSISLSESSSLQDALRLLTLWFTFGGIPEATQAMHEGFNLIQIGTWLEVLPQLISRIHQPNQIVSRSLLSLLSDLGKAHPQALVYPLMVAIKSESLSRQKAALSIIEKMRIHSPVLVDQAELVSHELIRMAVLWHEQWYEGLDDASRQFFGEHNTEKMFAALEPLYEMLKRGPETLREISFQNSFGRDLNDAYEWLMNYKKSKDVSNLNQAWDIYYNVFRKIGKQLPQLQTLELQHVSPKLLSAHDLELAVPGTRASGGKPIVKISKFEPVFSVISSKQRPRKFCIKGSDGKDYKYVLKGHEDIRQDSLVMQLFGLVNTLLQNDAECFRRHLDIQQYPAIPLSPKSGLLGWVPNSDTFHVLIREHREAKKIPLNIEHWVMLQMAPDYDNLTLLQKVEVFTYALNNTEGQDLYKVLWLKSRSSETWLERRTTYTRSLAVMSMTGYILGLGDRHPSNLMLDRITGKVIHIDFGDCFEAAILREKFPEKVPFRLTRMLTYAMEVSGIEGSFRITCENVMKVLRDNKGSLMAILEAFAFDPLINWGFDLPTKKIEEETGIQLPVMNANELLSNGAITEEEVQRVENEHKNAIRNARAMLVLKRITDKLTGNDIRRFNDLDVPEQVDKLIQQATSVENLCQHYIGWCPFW
UniProt P35169: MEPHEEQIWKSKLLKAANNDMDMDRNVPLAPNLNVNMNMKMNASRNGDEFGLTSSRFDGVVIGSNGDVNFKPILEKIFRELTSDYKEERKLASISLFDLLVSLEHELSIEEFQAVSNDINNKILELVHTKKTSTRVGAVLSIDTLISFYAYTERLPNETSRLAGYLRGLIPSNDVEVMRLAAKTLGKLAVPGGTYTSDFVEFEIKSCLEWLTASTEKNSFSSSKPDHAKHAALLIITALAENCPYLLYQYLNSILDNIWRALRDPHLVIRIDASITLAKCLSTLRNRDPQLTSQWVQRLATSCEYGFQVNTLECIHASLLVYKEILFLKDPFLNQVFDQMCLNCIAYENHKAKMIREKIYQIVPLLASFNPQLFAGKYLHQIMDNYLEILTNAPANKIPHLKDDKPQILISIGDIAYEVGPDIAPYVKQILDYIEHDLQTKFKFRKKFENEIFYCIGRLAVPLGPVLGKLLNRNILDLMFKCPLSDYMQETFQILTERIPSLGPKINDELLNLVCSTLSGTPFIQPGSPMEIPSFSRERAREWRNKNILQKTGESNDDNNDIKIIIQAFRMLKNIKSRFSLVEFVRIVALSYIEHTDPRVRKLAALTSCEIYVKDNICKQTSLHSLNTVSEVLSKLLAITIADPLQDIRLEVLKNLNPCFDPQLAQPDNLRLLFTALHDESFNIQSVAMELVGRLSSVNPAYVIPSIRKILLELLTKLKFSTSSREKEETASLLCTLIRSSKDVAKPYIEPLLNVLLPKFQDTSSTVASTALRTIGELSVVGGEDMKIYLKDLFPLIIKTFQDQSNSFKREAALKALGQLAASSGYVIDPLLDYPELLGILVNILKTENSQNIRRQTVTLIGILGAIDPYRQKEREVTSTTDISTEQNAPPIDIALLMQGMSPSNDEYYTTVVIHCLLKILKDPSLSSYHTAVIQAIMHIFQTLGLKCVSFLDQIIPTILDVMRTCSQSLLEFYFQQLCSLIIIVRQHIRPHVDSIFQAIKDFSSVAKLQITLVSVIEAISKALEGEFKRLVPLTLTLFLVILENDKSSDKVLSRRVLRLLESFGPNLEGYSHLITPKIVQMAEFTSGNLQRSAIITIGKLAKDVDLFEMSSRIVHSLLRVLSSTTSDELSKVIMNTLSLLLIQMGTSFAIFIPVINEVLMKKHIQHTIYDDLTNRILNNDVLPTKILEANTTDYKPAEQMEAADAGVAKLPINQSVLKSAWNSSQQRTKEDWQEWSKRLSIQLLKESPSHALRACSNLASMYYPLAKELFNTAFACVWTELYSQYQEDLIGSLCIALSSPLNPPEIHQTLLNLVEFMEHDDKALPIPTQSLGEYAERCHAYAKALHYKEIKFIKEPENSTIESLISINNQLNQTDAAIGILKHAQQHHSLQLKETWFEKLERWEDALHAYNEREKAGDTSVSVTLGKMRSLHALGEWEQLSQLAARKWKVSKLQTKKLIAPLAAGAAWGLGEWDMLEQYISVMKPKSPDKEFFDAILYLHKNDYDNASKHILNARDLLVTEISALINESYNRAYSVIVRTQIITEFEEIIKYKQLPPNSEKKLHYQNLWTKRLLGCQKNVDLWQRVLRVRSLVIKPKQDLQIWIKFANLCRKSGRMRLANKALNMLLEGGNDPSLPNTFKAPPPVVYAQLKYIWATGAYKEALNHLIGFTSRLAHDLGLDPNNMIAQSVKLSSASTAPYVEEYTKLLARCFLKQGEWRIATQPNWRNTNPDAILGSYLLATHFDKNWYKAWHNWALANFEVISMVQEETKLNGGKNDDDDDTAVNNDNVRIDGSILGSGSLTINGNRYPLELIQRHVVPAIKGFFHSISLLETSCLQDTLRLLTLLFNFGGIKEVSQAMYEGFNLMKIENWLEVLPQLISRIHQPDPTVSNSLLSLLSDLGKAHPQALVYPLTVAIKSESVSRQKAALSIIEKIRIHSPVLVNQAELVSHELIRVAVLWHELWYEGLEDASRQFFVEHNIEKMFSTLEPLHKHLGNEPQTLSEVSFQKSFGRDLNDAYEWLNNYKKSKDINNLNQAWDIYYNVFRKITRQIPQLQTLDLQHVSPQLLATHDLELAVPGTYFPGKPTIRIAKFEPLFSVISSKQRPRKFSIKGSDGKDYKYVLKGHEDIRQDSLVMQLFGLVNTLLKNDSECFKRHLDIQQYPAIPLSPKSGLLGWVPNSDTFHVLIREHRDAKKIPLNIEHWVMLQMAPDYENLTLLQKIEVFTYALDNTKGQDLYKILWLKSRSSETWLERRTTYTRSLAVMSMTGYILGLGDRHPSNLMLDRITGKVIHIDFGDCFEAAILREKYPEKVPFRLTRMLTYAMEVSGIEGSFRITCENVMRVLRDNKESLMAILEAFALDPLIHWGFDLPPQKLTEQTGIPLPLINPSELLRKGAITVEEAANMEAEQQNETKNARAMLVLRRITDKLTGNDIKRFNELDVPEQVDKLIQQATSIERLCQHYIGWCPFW

Legend:
[1] = target: T1, Flag-tagged Avo3 (S. cerevisiae) (UniProt P40061); assay: co-IP; Flag-tagged Kog1 or Avo3 immunoprecipitated from cleared spheroplast lysates of yeast grown in YEPD at 30°C. Anti-Flag M2 on Dynabeads protein G, 4°C, 2 h, in IP buffer (1x PBS, 2 mM MgCl2, 1% Tween-20, 10 mM β-mercaptoethanol, phosphatase and protease inhibitors). Co-precipitated HA-Tor1 or HA-Tor2 detected by anti-HA immunoblot. Wild-type, tor2(K12) and tor1Δ backgrounds.
T1 sequence: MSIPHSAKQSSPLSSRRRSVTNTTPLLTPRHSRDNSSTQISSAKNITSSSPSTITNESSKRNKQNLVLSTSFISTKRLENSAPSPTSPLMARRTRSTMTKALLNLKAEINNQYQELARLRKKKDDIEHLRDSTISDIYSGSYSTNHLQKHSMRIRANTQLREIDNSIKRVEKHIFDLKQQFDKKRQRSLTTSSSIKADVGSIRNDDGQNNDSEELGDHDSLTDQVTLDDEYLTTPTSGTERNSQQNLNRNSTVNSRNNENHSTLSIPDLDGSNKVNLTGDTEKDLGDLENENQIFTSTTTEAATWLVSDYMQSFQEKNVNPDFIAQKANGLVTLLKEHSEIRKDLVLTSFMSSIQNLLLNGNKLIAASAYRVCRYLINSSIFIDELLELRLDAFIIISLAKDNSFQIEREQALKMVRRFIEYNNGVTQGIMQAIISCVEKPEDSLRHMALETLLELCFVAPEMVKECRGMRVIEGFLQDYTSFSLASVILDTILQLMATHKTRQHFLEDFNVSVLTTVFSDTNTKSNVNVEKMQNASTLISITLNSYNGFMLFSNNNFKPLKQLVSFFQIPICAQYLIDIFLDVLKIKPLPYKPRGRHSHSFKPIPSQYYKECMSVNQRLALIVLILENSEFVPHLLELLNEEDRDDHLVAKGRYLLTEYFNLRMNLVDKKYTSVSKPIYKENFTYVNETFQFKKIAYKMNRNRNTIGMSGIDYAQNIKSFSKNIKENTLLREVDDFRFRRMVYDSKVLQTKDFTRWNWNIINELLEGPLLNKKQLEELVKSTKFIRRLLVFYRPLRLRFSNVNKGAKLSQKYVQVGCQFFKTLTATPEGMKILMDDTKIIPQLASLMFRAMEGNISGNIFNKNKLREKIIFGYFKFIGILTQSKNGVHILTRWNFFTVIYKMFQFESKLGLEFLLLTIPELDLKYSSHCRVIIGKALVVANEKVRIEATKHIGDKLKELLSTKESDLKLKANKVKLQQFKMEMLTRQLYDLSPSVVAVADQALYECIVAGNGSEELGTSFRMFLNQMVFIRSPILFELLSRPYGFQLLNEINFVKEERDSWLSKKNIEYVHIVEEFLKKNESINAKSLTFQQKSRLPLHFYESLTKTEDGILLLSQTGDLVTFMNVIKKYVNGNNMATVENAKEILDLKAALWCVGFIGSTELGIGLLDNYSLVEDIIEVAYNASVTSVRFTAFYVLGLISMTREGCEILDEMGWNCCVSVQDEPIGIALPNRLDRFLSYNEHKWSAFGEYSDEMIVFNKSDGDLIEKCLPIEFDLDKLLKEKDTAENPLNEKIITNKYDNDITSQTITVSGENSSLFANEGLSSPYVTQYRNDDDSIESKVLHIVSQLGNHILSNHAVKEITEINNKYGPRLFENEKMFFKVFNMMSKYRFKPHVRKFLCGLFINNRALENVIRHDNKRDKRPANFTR

[2] = target: Flag-tagged Kog1 (S. cerevisiae) (UniProt P38873); assay: as above

Substance	binding [1]	binding [2]
HA-tagged Tor2 (wild type) (from UniProt P32600 1-2474) (enzyme)	binds	binds
HA-tagged Tor1 (from UniProt P35169 1-2470) (enzyme)	–	binds
